Library screen at single concentrations

Chains of the proteins cited; added tags and fusions are not shown. Residues count along the entry.
UniProt P9WNZ1, whole entry: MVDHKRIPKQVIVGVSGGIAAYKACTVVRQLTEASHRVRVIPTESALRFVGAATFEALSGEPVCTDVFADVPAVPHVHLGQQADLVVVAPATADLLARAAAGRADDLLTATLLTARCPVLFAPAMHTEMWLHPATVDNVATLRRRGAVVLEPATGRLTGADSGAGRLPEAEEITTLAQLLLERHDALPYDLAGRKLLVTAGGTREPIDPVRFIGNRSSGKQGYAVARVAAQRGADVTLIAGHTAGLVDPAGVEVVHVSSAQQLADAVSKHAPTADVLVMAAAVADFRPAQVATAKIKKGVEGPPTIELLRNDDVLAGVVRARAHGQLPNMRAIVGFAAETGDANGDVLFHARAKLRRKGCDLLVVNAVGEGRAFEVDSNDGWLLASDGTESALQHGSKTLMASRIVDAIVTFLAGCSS
UniProt I6X8D2, whole entry: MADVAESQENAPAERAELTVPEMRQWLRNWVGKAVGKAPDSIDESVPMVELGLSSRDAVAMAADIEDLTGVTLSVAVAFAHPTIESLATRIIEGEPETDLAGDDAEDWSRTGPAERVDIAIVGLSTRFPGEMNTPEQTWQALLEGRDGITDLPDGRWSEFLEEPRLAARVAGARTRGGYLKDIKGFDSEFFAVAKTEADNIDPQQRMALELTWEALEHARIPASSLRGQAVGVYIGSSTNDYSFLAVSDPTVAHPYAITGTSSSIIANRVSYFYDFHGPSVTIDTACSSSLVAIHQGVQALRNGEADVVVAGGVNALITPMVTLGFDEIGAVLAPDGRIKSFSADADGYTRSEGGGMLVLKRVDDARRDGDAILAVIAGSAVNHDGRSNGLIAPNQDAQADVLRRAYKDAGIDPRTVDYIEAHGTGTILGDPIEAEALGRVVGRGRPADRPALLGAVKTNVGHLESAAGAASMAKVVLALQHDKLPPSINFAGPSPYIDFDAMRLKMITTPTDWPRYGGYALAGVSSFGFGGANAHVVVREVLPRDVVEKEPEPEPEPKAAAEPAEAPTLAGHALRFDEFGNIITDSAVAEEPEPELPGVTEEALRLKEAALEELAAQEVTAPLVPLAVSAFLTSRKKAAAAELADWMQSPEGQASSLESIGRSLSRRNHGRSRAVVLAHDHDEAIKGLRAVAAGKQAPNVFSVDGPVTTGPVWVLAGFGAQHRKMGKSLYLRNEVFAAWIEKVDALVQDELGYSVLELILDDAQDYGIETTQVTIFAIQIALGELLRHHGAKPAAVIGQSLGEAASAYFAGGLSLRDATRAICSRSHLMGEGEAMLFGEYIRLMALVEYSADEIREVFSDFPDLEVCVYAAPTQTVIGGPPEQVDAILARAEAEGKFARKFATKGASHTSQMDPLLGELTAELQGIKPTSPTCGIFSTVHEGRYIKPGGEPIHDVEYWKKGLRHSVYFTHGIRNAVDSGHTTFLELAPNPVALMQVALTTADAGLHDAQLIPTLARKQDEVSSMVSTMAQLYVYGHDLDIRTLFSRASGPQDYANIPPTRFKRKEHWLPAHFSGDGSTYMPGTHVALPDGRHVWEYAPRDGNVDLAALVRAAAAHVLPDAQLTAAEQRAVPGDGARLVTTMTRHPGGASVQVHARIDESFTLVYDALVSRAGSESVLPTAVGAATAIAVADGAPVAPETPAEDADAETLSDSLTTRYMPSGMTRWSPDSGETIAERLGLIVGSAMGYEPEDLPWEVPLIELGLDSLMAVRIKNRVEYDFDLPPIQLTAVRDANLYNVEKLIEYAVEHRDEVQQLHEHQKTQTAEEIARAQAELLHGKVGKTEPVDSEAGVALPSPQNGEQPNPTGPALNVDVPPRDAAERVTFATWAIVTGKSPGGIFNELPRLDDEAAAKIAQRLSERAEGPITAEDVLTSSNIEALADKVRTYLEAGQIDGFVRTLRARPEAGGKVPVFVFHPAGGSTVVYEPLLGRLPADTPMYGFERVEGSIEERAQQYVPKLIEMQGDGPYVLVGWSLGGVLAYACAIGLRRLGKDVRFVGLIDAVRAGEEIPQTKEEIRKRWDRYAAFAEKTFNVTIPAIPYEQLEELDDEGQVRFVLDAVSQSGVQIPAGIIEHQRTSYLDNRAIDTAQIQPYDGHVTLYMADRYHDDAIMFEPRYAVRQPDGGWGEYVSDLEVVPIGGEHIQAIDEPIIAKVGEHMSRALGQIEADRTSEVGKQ
UniProt P9WPC5, whole entry: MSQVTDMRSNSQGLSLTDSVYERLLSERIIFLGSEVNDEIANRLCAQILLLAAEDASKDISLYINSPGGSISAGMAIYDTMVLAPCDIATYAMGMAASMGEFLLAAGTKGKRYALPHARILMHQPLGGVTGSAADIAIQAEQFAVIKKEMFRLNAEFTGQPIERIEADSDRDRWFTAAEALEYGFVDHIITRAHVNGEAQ
UniProt P9WPC3, whole entry partner: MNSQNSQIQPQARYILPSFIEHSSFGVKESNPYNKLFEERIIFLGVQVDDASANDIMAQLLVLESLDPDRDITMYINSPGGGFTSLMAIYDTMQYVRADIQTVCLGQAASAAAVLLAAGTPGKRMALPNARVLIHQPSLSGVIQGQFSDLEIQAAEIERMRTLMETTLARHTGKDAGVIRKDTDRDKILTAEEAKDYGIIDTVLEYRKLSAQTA
UniProt A4I591, 1-473: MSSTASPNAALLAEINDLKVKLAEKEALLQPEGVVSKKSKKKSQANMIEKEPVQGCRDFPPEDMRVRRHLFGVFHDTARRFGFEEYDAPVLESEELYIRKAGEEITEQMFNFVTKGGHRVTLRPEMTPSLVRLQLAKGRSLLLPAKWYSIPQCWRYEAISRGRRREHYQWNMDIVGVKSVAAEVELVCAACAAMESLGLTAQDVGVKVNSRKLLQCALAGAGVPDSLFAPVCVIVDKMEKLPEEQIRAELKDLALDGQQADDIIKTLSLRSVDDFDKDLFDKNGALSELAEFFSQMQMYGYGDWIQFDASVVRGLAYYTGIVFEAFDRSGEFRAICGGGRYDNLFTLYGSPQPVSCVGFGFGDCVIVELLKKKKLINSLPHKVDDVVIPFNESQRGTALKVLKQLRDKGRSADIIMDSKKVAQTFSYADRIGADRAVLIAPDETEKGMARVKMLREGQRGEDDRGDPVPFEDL
UniProt P9WFT3, whole entry: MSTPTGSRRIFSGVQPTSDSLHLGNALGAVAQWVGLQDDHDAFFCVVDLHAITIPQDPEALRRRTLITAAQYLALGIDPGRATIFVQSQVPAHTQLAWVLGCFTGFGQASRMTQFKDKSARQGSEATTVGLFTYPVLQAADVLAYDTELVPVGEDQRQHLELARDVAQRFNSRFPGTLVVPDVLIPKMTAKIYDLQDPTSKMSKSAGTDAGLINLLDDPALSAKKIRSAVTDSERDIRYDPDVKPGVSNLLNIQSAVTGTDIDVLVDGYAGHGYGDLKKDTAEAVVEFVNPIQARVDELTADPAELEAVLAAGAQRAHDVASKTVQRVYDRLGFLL

The values are deposited in ChEMBL (CHEMBL3988442, “University of Dundee, Small-Polar-MMV Screening Library” (2021)).

A: 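Enzyme assay of CoaBC with a phosphate dye (Biomol Green) read at 650 nm. Target: Coenzyme A biosynthesis protein CoaBC, Mycobacterium tuberculosis (UniProt P9WNZ1). Tested at 30 µM. Direction is inferred from only a few compounds that gave an IC50; most scored high, so higher reads as stronger inhibition. Most strong results did not repeat in a second test. Size under these conditions: about 67,000 compounds, about 40 of them at 50% or above in at least one test.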
B: 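Polyketide synthase Pks13, Mycobacterium tuberculosis (UniProt I6X8D2). Enzyme assay of the thioesterase domain of polyketide synthase 13; the read-out is not stated. Tested at 30 µM. Higher reads as stronger inhibition (inferred from which compounds were picked for retests). About 67,000 compounds were tested under these conditions; 0.46% (about 300) showed 50% or more at least once.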
C: 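ClpP1P2, Mycobacterium tuberculosis (UniProt P9WPC5 and UniProt P9WPC3). Protease assay of ClpP1P2, read by the AMC dye that it sets free. Concentration: 50 µM. Higher reads as stronger inhibition, judged from the few compounds that gave an IC50. Most other retested compounds had strongly negative values. Of about 69,000 compounds tested this way, about 10 (0.015%) reached 50% or more in at least one test.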
D: 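Assay of Toxoplasma gondii numbers, read through their beta-galactosidase reporter with a colour substrate. Tested at 10 µM. Higher reads as fewer parasites (inferred from which compounds were picked for retests). Of about 67,000 compounds tested this way, about 260 (0.38%) reached 50% or more in at least one test.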
E: 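Histidine-tRNA ligase, Leishmania infantum (UniProt A4I591). Enzyme assay of histidyl-tRNA synthetase; the read-out is not stated. Compounds at 30 µM. The record gives no direction; compounds that gave an IC50 in retests scored well above the rest, so higher reads as stronger inhibition. The assay is labelled LdHisRS but filed under L. infantum. Of about 69,000 compounds tested this way, about 410 (0.6%) reached 50% or more in at least one test.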
F: 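Enzyme assay of tryptophanyl-tRNA synthetase; the read-out is not stated. Target: Tryptophan-tRNA ligase, Mycobacterium tuberculosis (UniProt P9WFT3). Compounds at 10 µM. Higher most likely means stronger inhibition; the record gives no direction and few retests gave an IC50. About 65,000 compounds were tested under these conditions; 0.098% (about 64) showed 50% or more at least once.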

Each number is a percent effect as filed. The controls that fix the scale are not given in the record; negative values are as filed. The compounds are a random part of those screened. Two or more numbers in one place are separate tests of the same structure; such repeats can differ widely. A dash means the value is not listed here; it may have been measured.

compound,A,B,C,D,E,F
Cc1ccc(-c2ccnc(N3CCC4(CC3)CNC(=O)C4)n2)c(C)n1,-2.206,-18.83,8.383,-2.065,4.444,-3.457
COC(=O)c1cccc(S(=O)(=O)NC(=O)COC2CCCC2)c1,5.032,-13.44,-6.824,13.38,3.478,1.266
NC(=O)CN1CC2(CCC1=O)CCN(Cc1cc(F)ccc1Cl)CC2,11.16,-10.3,-1.522,-0.4405,20.39,10.48
Cc1nocc1C(=O)N1CCOC2(COCCN(C(C)C)C2)C1 (stereo not given),3.465,-2.242,-14.3,-,11.71,-
COc1ccccc1CC(=O)NC1CCCc2cn[nH]c21 (stereo not given),-3.797,-9.287,-12.56,1.345,15.79,5.385
Cc1cccc(C2CCCN(C(=O)c3ccncc3)C2)n1 (stereo not given),-0.9685,-0.01379,10.01,-10.97,14.43,-
Cc1cnn(CC2CCCCN2CCC(=O)Nc2cc(C)on2)c1 (stereo not given),5.744,-18.47,0.4043,18.05,18.92,1.072
CCCOC1CCCN(c2nc(CC)nc3c2cnn3C)C1 (stereo not given),0,3.844,-8.477,6.728,20.88,3.819
Cc1cc(CNC(=O)[C@H]2CCCCN2C(=O)OC(C)(C)C)on1,2.959,-8.923,-7.911,-6.757,6.061,0.4617
Cn1cc(CN2C[C@@H]3COC[C@H](C(=O)Nc4cccnc4)[C@@H]3C2)cn1,3.509,47.44,0.5239,-,30.77,4.979
O=C(c1cc(F)cc(Cl)c1)N1CCN(CCO)[C@@H]2CS(=O)(=O)C[C@@H]21,4.615,-7.648,3.626,-,11.43,-4.581
O=C(CSCC1CC1)N1CCCC(c2nccn2Cc2cccnc2)C1 (stereo not given),2.788,-114.4,-13.7,20.57,8.065,1.212
CCc1ncncc1C(=O)Nc1ccc2ccn(CCN(C)C)c2c1,-,-34.34,0.3958,-2.055,17.5,-0.8256
CC(=O)N1CCCC(c2ccc(C(N)=O)cn2)C1 (stereo not given),5.328,3.846,-3.307,-4.679,8,-
CC(C)(C)n1nc(C2CC2)cc1C(=O)NC1CCN(CC(N)=O)CC1,2.421,-7.116,-4.226,21.8,13.04,-4.238
O=C(CCC1CC1)N1C[C@@H](CN2CCCC2)[C@@H](CO)C1,0,-8.329,-22.19,6.058,10.38,1.408
O=C(CCc1nnc(-c2ccsc2)o1)NCC1CCN(C2CC2)C1 (stereo not given),3.185,-4.483,3.817,3.213,5.181,-1.534
CSCC[C@@H](CO)Nc1ccc(-c2nc(-c3ccccc3F)no2)cn1,5.128,-16.6,-16.68,-5.754,1.709,-8.637
CC(C)c1cccc(CSc2nnc(Cn3cncn3)o2)n1,1.966,-3.404,-16.14,-69.56,2.151,1.026
Cc1c(CN2CCCC(O)C2)[nH]c2ccc(F)cc12 (stereo not given),28.34 and 8.763,3.626,-3.748,14.15,4.255,-7.381
CC(C)NC(=O)CN1CCC2(CC1)OCCO2,-4.622,-26.74,0.4614,-12.25,9.402,-2.401
COCCc1noc(CN2CC(Cc3ccccc3)CC2=O)n1 (stereo not given),5.19,19.22,4.024,-21.02,22.89,0.2719
CC[C@H](CO)NC(=O)c1coc(COc2ccccc2F)n1,-1.023,-12.72,-11.01,23.32,9.836,-3.465
Cc1[nH]nc(CCC(=O)N2CCc3c(nc[nH]c3=O)C2)c1C,10.66,1.889,-6.688,-10.97,15.66,-1.683
CCC(C(=O)NCc1ccncc1)N(c1cccc(C)c1)S(C)(=O)=O (stereo not given),1.339,-16.61,-12.63,-7.819,16.5,-4.796
c1cncc(C2COC3(CCN(Cc4cccs4)CC3)C2)c1 (stereo not given),1.235,-15.59,-17.04,-,2.778,-8.621
O=C(Cc1cccc(F)c1)N1CCn2cc(Cn3cccn3)nc2C1.O=C(O)C(F)(F)F,-,-,-,-16.42,-,-
CN1CCN(C2CCCC2)C(CCO)C1 (stereo not given),1.276,-9.081,-22.82,8.421,11.11,0.7638
CNC(=O)C1CCN(C(=O)NCCc2ccc(Cl)s2)CC1,7.506,-,-4.96,-5.497,11.3,0.2556
O=C(Cc1cccc(F)c1)NCCNCc1cccc(O)c1,4.578,-4.406,0.4852,0.4235,32.88,1.998
COCCN1CCC12CCN(C(=O)c1ccc3[nH]ccc3c1)C2 (stereo not given),-11.56,0.6272,7.826,-6.294,17.43,2.368
Cc1ccc(NC(=O)c2ncc(C(N)=O)cc2Cl)cc1F,-0.6402,-18.72,-1.997,-1.457,22.22,1.285
O=C(Nc1ccc(F)cc1)N1C[C@H]2C[C@H](C(=O)N3CCOCC3)[C@@H](C1)O2,4.689,-10.32,-8.846,-,20.39,-0.9923
CCOCC(=O)N1C[C@@H]2CC[C@H](Oc3ccccc3)[C@@H]2C1,6.813,-4.671,-4.076,-,26.32,-0.05798
Cl.Cn1nc(C2CCCN(Cc3ccccc3)C2)c2nccnc21 (stereo not given),-,-,-,-7.105,-,-
c1cc(CCn2ccc(NC3CCSCC3)n2)ccn1,8.333,-19.57,2.416,0.05359,6.25,-6.989
COc1ccc(C(=O)N2C[C@@H](CN3CCCCC3)[C@@H](CO)C2)cc1Cl,5.656,-38.35,1.678,2.482,10.42,-3.638
CCc1n[nH]c(C2CN(C(=O)c3cc4c(s3)CCCC4)CCO2)n1 (stereo not given),7.712,-5.765,13.45,-,-28.09,-4.17
Cc1cccc(CNC(=O)NCC2CCN(Cc3ncc[nH]3)C2)c1 (stereo not given),11.64 and 20.93,-2.235,-7.081,10.45,19.67,-2.441
CN(C)S(=O)(=O)N1CC[C@]2(C[C@H](Oc3cccnc3)CO2)C1,1.416,-3.356,2.014,-,15.69,0.2876
Cc1cc(C)nc(C2CCN(c3ccncn3)C2)n1 (stereo not given),6.294,14.25,-15.42,11.18,5.674,-8.665
[H][C@@]12NC(=O)N[C@@H](c3ccccc3C(=O)O)[C@]1([H])CCCO2,-,-,-,5.267,-,-
CCN1CC(C(=O)NCCCc2nc(C)c(C)s2)CC1=O (stereo not given),-0.4878,-5.369,-16.65,0.8932,4.8,-0.9029
COc1c(F)cc(CN2CCC3(CC2)CN(C)C(=O)O3)cc1Cl,4.516,-26.77,-0.0961,3.567,9.211,-2.285
Cc1noc(CN2CCC(Cc3ccc(F)cc3)CC2)n1,3.422,-9.57,-8.625,-4.043,6.329,2.688
CS(=O)(=O)N1CCCn2nc(CNc3ncccn3)cc2C1,3.968,-4.304,-1.283,-8.021,16.67,-5.103
Cc1cnc(CN2CC=C(c3c[nH]c4ncccc34)CC2)o1,-2.659,11.75,-7.624,6.212,17.86,0.2154
CC(NC(=O)N1CCC(c2ccccc2)CC1)c1nncn1C (stereo not given),1.305,1.603,-28.07,2.336,13.79,-4.589
COc1ccc(Cl)c(NCC(=O)NCC(=O)N2CCCC2)c1,-1.09,-5.984,-13.94,17.92,20.65,-1.4

For reference, 3 entries once more:

compound	A	B	C	D	E	F
CC(C)(C)n1nc(C2CC2)cc1C(=O)NC1CCN(CC(N)=O)CC1	2.421	-7.116	-4.226	21.8	13.04	-4.238
Cc1ccc(-c2ccnc(N3CCC4(CC3)CNC(=O)C4)n2)c(C)n1	-2.206	-18.83	8.383	-2.065	4.444	-3.457
COc1ccc(Cl)c(NCC(=O)NCC(=O)N2CCCC2)c1	-1.09	-5.984	-13.94	17.92	20.65	-1.4